Values of other authors as cited in patent US6669963B1, “Stable particle in liquid formulations” (Elan Drug Delivery Limited, priority 1997, dated 2003).
Some entries share one result that the patent states for a list of compounds.

System: rats
Conditions: cited from earlier work

Substance	oral LD50 in rats [mg/kg]
sorbitan sesguioleate	> 15000
sorbitan tristearate	> 15000
mannide monooleate	> 15000
